# About 22,000 (6.9%) of roughly 320,000 compounds were called active. This list was built around the results that the source calls inconclusive (neither active nor inactive); the mix of calls is not that of the screen. Calls follow the shape of the dose curve; as a rule, active = well fitted inhibition curve with a large enough effect; inconclusive = small, poorly fitted or top-dose-only effect, or another doubt; inactive = no such curve, though single readings can be large or run the other way. Potencies of inconclusive entries are doubtful fits and often do not repeat.
# Experiment: Primary qHTS for delayed death inhibitors of the malarial parasite plastid, 96 hour incubation
# Settings: P. falciparum luciferase reporter growth; series mostly up to 28.7 µM
# Method in brief: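 P. falciparum expressing integrated firefly luciferase grown in erythrocytes (2% hematocrit, 0.05% parasitemia final) with compounds for 96 hours at 37 C, 5% CO2. Growth inhibition read as loss of luminescence after adding luciferase detection reagent.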
# Potency is read from the fitted curve at half-maximal effect.
row,Structure (SMILES),Potency
1,Cc1ccc(CNC(=O)c2ccc(N3CCc4ccccc43)c([N+](=O)[O-])c2)cc1,"inconclusive: 14.7 µM [inhibitor, single point]"
2,OC1CCCN(c2c3c(nc4cc(-c5cccc(Cl)c5)nn24)CCC3)C1 (stereo not drawn),inactive
3,O=C(CNC(=O)c1cccs1)NCC(=O)OCC(=O)c1ccccc1,inactive
4,CC(=O)N1CCc2cc(S(=O)(=O)CCC(=O)Nc3cc(C)cc(C)c3)ccc21,inactive
5,COC(=O)c1ccc(CN2C(=O)NC(Cc3c[nH]c4ccccc34)C2=O)cc1 (stereo not drawn),inactive
6,COc1ccc(NC(=O)Cn2nnc(-c3ccccc3NC(=O)c3ccco3)n2)cc1,"inconclusive: 0.37 µM [inhibitor, full curve, poor fit]"
7,CCOC(=O)C1CCCN(C(=O)CNC(=O)Cn2ccc3ccccc3c2=O)C1 (stereo not drawn),"inconclusive: 13.1 µM [inhibitor, single point]"
8,CCSc1ncc(/C=N/Nc2ccc(F)cc2)n1C,"inconclusive: 0.928 µM [inhibitor, partial curve, poor fit]"
9,C=CCNC(=S)NNC(=O)COc1c(Cl)cc(Cl)cc1Cl,"inconclusive: 20.8 µM [inhibitor, partial curve, poor fit]"
10,Cn1cc(/C=C2\SC(=O)NC2=S)c2ccccc21,"inconclusive: 18.5 µM [inhibitor, single point]"
11,CC(C)CCOCC(O)CCC(=O)NNC(=S)Nc1ccccc1 (stereo not drawn),inactive
12,O=S(=O)(c1ccc(F)cc1)N1CCN(C(=S)NCC2CCCO2)CC1 (stereo not drawn),active: 2.08 µM
13,Oc1cccc2ccc(/C=C/c3cccs3)nc12,inactive
14,S=C(CN1CCCC1=S)NCCc1ccccc1,inactive
15,Cc1cccc(S(=O)(=O)N2CCCc3ccccc32)c1,inactive
16,Cc1ccc(N(CC(=O)NC2CCCCC2C)S(=O)(=O)c2c(C)nn(C)c2C)cc1 (stereo not drawn),"inconclusive: 10.4 µM [inhibitor, single point]"
17,CCC(C(=O)NC1CCCCC1)N(Cc1cccs1)C(=O)c1snc(C(N)=O)c1N (stereo not drawn),"inconclusive: 4.15 µM [inhibitor, partial curve]"
18,CCCn1c(C)cc(/C=C(\C#N)C(=O)OCC(=O)N(C)c2c(N)n(Cc3ccccc3)c(=O)[nH]c2=O)c1C,"inconclusive: 13.1 µM [inhibitor, single point]"
19,CCOC(=O)N1CCN(CC(O)COc2ccc(C)cc2C(C)(C)C)CC1 (stereo not drawn),inactive
20,NC(=O)c1c(NC(=O)CN2C(=O)CCC2=O)sc2c1CCCCC2,inactive
21,COc1cccc(S(=O)(=O)N2CCN(Cc3ccc4c(c3)OCO4)CC2)c1,"inconclusive: 18.5 µM [inhibitor, single point]"
22,O=C(Nc1ccc(Oc2ccccc2)cc1)C1CCCN(c2ncccn2)C1 (stereo not drawn),"inconclusive: 11.7 µM [inhibitor, single point]"
23,O=C(C1=C[C@@H](C2CCCCC2)C[C@@H](OCc2ccc(CO)cc2)O1)N1CCN(Cc2ccc3c(c2)OCO3)CC1,active: 13.1 µM
24,Cc1sc2ncnc(SCC(=O)N(C(C)C)C(C)C)c2c1C,inactive
25,Cc1cc(NCCO)c2ccccc2n1,"inconclusive: 0.0586 µM [inhibitor, full curve, poor fit]"

row,Structure (SMILES),Potency
1,COc1ccccc1C(=O)NC(=O)COC(=O)c1cc[n+]([O-])cc1,inactive
2,CCOc1ccc2nc(Cl)c(CN(C(C)=O)C3CCCCC3)cc2c1,"inconclusive: 11.7 µM [inhibitor, partial curve, poor fit]"
3,COc1ccc(CN2CCCC(C(=O)Nc3cccc(-n4cccn4)c3)C2)cc1 (stereo not drawn),inactive
4,O=C(c1cc(COc2ccc(F)cc2Cl)on1)N1CCCC(c2ccccc2)C1 (stereo not drawn),inactive
5,O=C(Nc1cccnc1)c1ccc2ccccc2c1O,active: 0.465 µM
6,COc1ccc(C)cc1NC(=O)c1ccc(NC(=O)CC2SC(N3CCCC3)=NC2=O)cc1 (stereo not drawn),"inconclusive: 11.7 µM [inhibitor, partial curve]"
7,COC(=O)CN1C(=O)COc2ccc(S(=O)(=O)N3CCCCCC3)cc21,"inconclusive: 13.1 µM [inhibitor, partial curve]"
8,CN(CC(=O)Nc1cccc(S(=O)(=O)NC2=NCCC2)c1)Cc1cccc(F)c1,"inconclusive: 11.7 µM [inhibitor, single point]"
9,COc1ccc(Br)cc1C(C[N+](=O)[O-])c1c(N)n(C)c(=O)n(C)c1=O (stereo not drawn),"inconclusive: 7.38 µM [inhibitor, partial curve, poor fit]"
10,O=C(CSc1nnc2ccc(-c3ccncc3)nn12)Nc1ccc(F)cc1,"inconclusive: 14.7 µM [inhibitor, single point]"
11,Cc1ccc(C(C(=O)NC2CCCC2)N(CCCO)C(=O)Cn2nnc(-c3ccc(C)o3)n2)cc1 (stereo not drawn),"inconclusive: 10.4 µM [inhibitor, single point]"
12,CC(NCc1ccc2c(c1)OCO2)C(=O)NC1CCCCC1 (stereo not drawn),"inconclusive: 3.29 µM [inhibitor, single point]"
13,N#Cc1cc(N2CCCCC2)c([N+](=O)[O-])cc1C#N,"inconclusive: 14.7 µM [inhibitor, partial curve, poor fit]"
14,Nc1nc(CSc2ccccc2)nc(N2CCCCC2)n1,inactive
15,CCC(NC(=S)NC1CCCCC1)c1ccc(C)cc1 (stereo not drawn),active: 7.38 µM
16,NC(=O)C1CC(=O)N(c2ccc(OCC(=O)Nc3cccc(C(F)(F)F)c3)cc2)C1 (stereo not drawn),"inconclusive: 13.1 µM [inhibitor, partial curve, poor fit]"
17,CSc1ccccc1NC(=O)c1ccc(C)o1,"inconclusive: 16.5 µM [inhibitor, single point]"
18,COc1cc(S(=O)(=O)NCC2COCCO2)ccc1-n1cnnn1 (stereo not drawn),active: 11.7 µM
19,COC(=O)c1ccc(C(=O)OC)c(NC(=S)N2CCN(c3ccccn3)CC2)c1,"inconclusive: 11.7 µM [inhibitor, single point]"
20,CCN(CC)CCNC(=O)c1c(C)n(-c2ccccc2)c2cc(Br)c(OC)cc12,"inconclusive: 11.7 µM [inhibitor, single point]"
21,COc1cc(NC(=O)c2ccco2)ccc1NC(=O)C(C)C,inactive
22,COc1ccc(NC(=O)CSc2nc(=O)n(CCN3CCOCC3)c3c2CCC3)cc1,inactive
23,CCOC(=O)C(c1ccccc1)N1CCN(c2ccc(OC)cc2)CC1 (stereo not drawn),"inconclusive: 11.7 µM [inhibitor, partial curve, poor fit]"
24,Cc1ccc(NC2CCCN(C(=O)CCC3=NNC(=O)CC3)C2)cc1C (stereo not drawn),active: 8.28 µM
25,CCOC(=O)c1c(C)[nH]c(C(=O)COC(=O)c2cnccn2)c1C,"inconclusive: 11.7 µM [inhibitor, single point]"

row,Structure (SMILES),Potency
1,COC(C[C@H](O)C[C@H](O)COCc1ccccc1)OC,inactive
2,CCc1ccc2c(c1)C1(NN=C(c3cccc4ccccc34)S1)C(=O)N2 (stereo not drawn),inactive
3,CC(C)(C#CC(O)(c1ccccc1)c1ccccc1)N1CCCCC1,"inconclusive: 18.5 µM [inhibitor, single point]"
4,Cc1onc(-c2ccccc2Cl)c1C(=O)Oc1cccc2cccnc12,inactive
5,CCc1cc(=O)oc2c3c(cc(OCC(=O)NCc4ccccn4)c12)OC(C)(C)CC3,"inconclusive: 14.7 µM [inhibitor, partial curve]"
6,O=c1[nH]c(-c2ccccn2)nc2ccccc12,"inconclusive: 16.5 µM [inhibitor, single point]"
7,Cc1ccccc1N1C(=O)NC(=O)/C(=C\c2cc(Br)c(N3CCOCC3)o2)C1=O,"inconclusive: 18.5 µM [inhibitor, single point]"
8,Cc1ccc(NC(=O)N2CCCCCC2)cc1,"inconclusive: 4.15 µM [inhibitor, full curve, poor fit]"
9,Cc1ccc2c(c1)cc1c(=O)n(CC(=O)N3CCCC3)nc(C)n12,"inconclusive: 18.5 µM [inhibitor, single point]"
10,CCn1c(CSc2ncccn2)nnc1SCC(=O)N1CCc2ccccc21,active: 4.65 µM
11,O=C(c1ccc(Cl)cc1)C12CN3CN(CN(C3)C1)C2,"inconclusive: 13.1 µM [inhibitor, single point]"
12,COc1ccc(Oc2c(-c3ccc(O)cc3O)n[nH]c2C)cc1,inactive
13,CC(=O)Oc1ccc([N+](=O)[O-])cc1N1C(=O)c2ccccc2C1=O,"inconclusive: 18.5 µM [inhibitor, single point]"
14,CCC(=O)c1ccc(OCC(=O)Nc2cccc(S(=O)(=O)N3CCCCCC3)c2)cc1,"inconclusive: 14.7 µM [inhibitor, single point]"
15,CC(C)Oc1ccccc1-c1cc(C(=O)N/N=C/c2cccnc2)c2ccccc2n1,"inconclusive: 13.1 µM [inhibitor, single point]"
16,Cc1nnc(SCC(=O)Nc2ccc(F)cc2)n(N)c1=O,"inconclusive: 4.15 µM [inhibitor, full curve, poor fit]"
17,COc1ccc(CCNC(=O)CS(=O)(=O)c2cn(CC(=O)N3CCOCC3)c3ccccc23)cc1OC,inactive
18,COc1cc(CNCCc2ccc(S(N)(=O)=O)cc2)ccc1OCC(=O)NC1CCCCC1,"inconclusive: 16.5 µM [inhibitor, single point]"
19,Cc1ccc(CN2C(=O)N/C(=C/c3ccc4c(c3)n(C)c(=O)n4C)C2=O)cc1,"inconclusive: 10.4 µM [inhibitor, single point]"
20,COc1ccccc1NC(=O)/C=C/c1cc([N+](=O)[O-])ccc1OC(F)F,inactive
21,Cc1cc(C(=O)N/N=C/c2cccnc2)n[nH]1,inactive
22,O=c1ccc2ccc(Oc3ccc([N+](=O)[O-])cc3Cl)cc2o1,inactive
23,Cc1onc(-c2c(Cl)cccc2Cl)c1COC(=O)c1ccc([N+](=O)[O-])cc1,"inconclusive: 11.7 µM [inhibitor, single point]"

# A second format for 4 compounds above.
row	Structure (SMILES)	Potency
6	COc1ccc(C)cc1NC(=O)c1ccc(NC(=O)CC2SC(N3CCCC3)=NC2=O)cc1 (stereo not drawn)	inconclusive: 11.7 µM [inhibitor, partial curve]
7	COC(=O)CN1C(=O)COc2ccc(S(=O)(=O)N3CCCCCC3)cc21	inconclusive: 13.1 µM [inhibitor, partial curve]
8	CN(CC(=O)Nc1cccc(S(=O)(=O)NC2=NCCC2)c1)Cc1cccc(F)c1	inconclusive: 11.7 µM [inhibitor, single point]
9	COc1ccc(Br)cc1C(C[N+](=O)[O-])c1c(N)n(C)c(=O)n(C)c1=O (stereo not drawn)	inconclusive: 7.38 µM [inhibitor, partial curve, poor fit]
